No constants are given. Whether binding was seen depends on the method and setting. Some entries that bind do so weakly or less than the wild type. Sequences can lack the tags named with a protein.
How the values were obtained:
[1] = molecular target: Envelope protein (TM in the context of the whole envelope protein) on intact ecotropic N2 virus (Moloney murine leukemia virus) (UniProt P03385); experiment: depletion of N2 virus by GST-EIP-agarose beads
[2] = molecular target: Envelope protein (TM in the context of the whole envelope protein) on intact ecotropic N2 virus (Moloney murine leukemia virus) (UniProt P03385); experiment: in vitro binding assay with intact virus
[3] = molecular target: Envelope protein (TM in the context of the whole envelope protein) on intact ecotropic N2 virus (Moloney murine leukemia virus) (UniProt P03385); experiment: depletion of N2 virus by GST-EIP-agarose beads; titer of supernatant on NIH3T3 cells

Protein sequences, listed by entry. Tags and fused reporters are not part of them. Residues count along the entry.
UniProt P03385, residues 34-649: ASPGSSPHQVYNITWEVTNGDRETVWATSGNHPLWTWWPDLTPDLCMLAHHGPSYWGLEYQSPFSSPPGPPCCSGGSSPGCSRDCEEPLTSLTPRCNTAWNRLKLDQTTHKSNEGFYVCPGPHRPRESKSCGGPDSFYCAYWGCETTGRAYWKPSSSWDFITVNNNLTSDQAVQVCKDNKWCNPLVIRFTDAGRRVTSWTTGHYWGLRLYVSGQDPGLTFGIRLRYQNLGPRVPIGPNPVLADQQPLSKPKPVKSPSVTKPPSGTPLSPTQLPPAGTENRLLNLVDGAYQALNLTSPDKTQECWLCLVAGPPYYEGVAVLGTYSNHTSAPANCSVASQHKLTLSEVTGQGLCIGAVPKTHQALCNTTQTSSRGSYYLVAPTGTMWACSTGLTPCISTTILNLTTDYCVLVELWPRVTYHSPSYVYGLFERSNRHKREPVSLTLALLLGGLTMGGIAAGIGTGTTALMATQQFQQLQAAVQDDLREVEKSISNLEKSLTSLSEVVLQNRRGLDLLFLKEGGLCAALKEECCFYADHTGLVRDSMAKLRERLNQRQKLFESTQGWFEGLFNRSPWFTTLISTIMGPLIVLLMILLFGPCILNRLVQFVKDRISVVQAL

Measured: binding

B1: GST-EIP-3 (protein, not shown: a dimerising Fc or GST)
chain: ELVGMSGGGTETPVACDAAQGGKKRDSLGTPGAAHLIIKDLGEIHSRLLDHRPVTQGEIRYFVKEFEEKRGLRELRVLKNLENTIQETNECLLPKCRETMECGLGETLQRLQAANDSICRLQQREQERKKVINDYLTASEKRRLVQWEEFVSGQPQRRAEVDEEHRRAVERLREQYAAMEKDLAKFSTF
binds: all assays above
